Source: article PMC3783193
These are yes or no findings as the source states them, for the method shown. In cells and extracts the contact can be indirect. A yes stands for co-enrichment or nearness to the bait. Other partners may have been found. No binding means not detected with the bait.

Protein sequences, listed by entry. Tags and fused reporters are not part of them. Lines headed by an entry give the natural chain unless they say otherwise; changes in a name come on top.
UniProt Q5ZJV9: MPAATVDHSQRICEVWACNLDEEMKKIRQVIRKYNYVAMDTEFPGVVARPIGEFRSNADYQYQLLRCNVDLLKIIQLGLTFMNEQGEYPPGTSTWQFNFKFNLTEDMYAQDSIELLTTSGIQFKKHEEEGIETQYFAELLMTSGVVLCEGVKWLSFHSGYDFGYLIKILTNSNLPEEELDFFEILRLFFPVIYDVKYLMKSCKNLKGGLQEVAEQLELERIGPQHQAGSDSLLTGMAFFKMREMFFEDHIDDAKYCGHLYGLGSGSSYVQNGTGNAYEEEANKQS
UniProt Q5ZIW2: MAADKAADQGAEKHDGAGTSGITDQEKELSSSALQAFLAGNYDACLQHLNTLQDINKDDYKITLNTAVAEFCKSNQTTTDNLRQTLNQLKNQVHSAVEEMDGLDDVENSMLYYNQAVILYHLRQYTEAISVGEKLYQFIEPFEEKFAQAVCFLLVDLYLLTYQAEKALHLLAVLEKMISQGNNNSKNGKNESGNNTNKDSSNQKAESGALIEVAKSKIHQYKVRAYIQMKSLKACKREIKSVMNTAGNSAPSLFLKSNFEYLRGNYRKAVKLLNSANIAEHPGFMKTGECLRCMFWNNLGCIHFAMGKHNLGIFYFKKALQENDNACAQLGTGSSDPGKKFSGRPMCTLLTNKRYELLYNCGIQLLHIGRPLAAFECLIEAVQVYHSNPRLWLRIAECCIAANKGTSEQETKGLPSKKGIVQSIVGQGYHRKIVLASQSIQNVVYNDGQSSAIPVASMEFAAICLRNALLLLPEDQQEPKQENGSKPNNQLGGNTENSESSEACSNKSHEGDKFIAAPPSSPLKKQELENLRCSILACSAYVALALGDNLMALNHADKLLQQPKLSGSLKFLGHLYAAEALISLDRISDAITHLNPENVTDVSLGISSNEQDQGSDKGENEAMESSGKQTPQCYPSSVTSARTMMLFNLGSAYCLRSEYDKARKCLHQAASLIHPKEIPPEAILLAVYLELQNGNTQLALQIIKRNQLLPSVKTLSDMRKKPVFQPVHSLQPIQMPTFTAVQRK
UniProt A0A8V0YGT1: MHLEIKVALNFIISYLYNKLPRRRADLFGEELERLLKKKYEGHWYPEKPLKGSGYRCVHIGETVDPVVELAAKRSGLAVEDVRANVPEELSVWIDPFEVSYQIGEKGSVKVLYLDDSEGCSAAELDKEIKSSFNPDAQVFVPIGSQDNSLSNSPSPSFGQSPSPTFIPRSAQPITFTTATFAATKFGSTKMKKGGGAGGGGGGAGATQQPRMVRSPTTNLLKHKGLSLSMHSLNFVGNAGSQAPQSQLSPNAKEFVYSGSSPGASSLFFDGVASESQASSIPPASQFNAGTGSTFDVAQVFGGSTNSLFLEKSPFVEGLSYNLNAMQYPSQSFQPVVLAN

Target: QuantEGFP-tagged CNOT7 (chicken (endogenous in DT40)) (UniProt Q5ZJV9)
Test: affinity purification with mass spectrometry; QuantEGFP-tagged bait captured from RNase A-digested DT40 lysate on GFP-Trap beads (1 h, 8°C; 10 mM Tris/HCl, 100 mM NaCl, Triton X-100), eluted with TEV protease, LC-MS; duplicates; control purification from parental DT40 Cre1 cells

Row | Substance | binding
1 | CNOT10 (from UniProt Q5ZIW2 1-744) | no binding
2 | TOB2 (from UniProt A0A8V0YGT1) | binds
